Experimental data as given in publication PMC10512220.
No constants are given. Whether binding was seen depends on the method and setting. In cells and extracts the contact can be indirect. A yes stands for co-enrichment or nearness to the bait. Other partners may have been found. Where a sequence is shown, tags or fusion partners need not be part of it.

B1: eIF3 subunit (NCU05889) (protein, UniProt Q7S519 1-443)
chain: MASTSPATTNGDVAPANYDLVLKLAPHLDRHMIFPLLEFNAGRLKEDETDKAREILAAKYALLKKTNMTDYVANLYCELEGLKEPPAEYAERRQKVFHQLEKYEQETAKITELLQRDDVVNNLRSDKVANLEFLKKEHDVTIDMVNALYDFGQLQYSCGNYADASELLYRFRVLSTDNDKVSYATWGRLACEILTMNWESAMEELQKVRESIDTRLANNPLAQLQHRTELVHWALFPLFNYDKAREPLLDLFFNAGFINTIQANSPWILRYLTVAVITNRGRAKNAGVHQKQMKDVVRIVKQEAYEYQDPITRFVHALCIDFDFEEAQQQLVLAEEVLRSDFFLLAHADDFVDSARHLIFESYCKIHARISLKDLSARLGLNNDDAEKWIVNLIRDTRLDAKIDYKEGTVVMNHPPSSVYQQVIERTKGGFFRTQVLTAAVAR
B2: OS-4 (NCU03071) (enzyme, UniProt Q1K904 1-1367)
chain: MASELSPRAVRFSQTDDEPIARLDKHKTVSRPNPRANDSDNSNPSTDAHDDLHVREQIDELGSLSRYVESHSGSVPSLVPGSLTSSLPLANGSSSRRGASSETYANGTPSRPQRPTAPARTPSNTYQPYNQRRPPQGQPSSYMANNPHARDGSRPRPLAGTSTFRAQEREYVRRLRQQDYNNDYFDAYGSGEQYDSDSEGETPSSEGAFDSYDDAHIMFASNEDIQITEEDLRDPESRERLEWHGMLEAVLTGDVVRQEKKRLIGSNDEAFGKSAHNVELWLGIRARLCGRHLPVQKRVVEDARAALDRSINDIINFAIAGESEAGKPPFEQVRDVVNKIERIESLYPSSRELMTALKPGVYSAYQETCDAVISWYNVNEMINTELSILKKWVGNDALDFSRTKEKSPSGNGLSDESSFLDRLMKEEGLKSLHEDKGSEPKSLKKKSRLDGISRVITKAKDTLIQNAEGFQKRHLPPYIEELLTLISFPSRLIEEIIKMRLAYAKKMKDSAQQNPMMQDQMISQFQVLLKLAIKIKREYMEIARPEPGWDLPPCIDEDFDRVILEALKYYFKLLNWKLSGNKNTFKEAELLFQEWGFGNEIGRYLAHGDVEVAEQFSSLTYKAWNRLSQTFEKEVQRRPKESVPEMTKRYKQILDSVRVRQRMLQRFSRMLNDNYENACDYTIAFEQPQMLHQLYDRLIETGHFQVYSASPEHKDILIIASPTLHNRDDEIQVLMGTFTYEAAIEDPSDPYLLIIKAEDPPQWLGPVHTLRVRNEPLDIKLGHMRLIAGGCQPRLLNARKAFVDRIDMQVDPVVEQRSNLQKVNFRLMEIRKVAFKLSNAFMDSVEAIRRQTRGLNCQELIQTCFIFATEFGQRSLLYMDNNRRTMNNLKLTKLALDWVSFICDDCISSDRKTFRWAVQALEFAMGMTRGRHILGLGEDEYARLRAKVAGCMALLISHFDIMGARSSVAAQAEKKRLEGLVNQIKRLNKGQMLDDNEAAKYYQEHRLEELAKVDNYRKEILLQQSAMGRVLEASNEVDRSLAWLSSTATNFTMRWQQGHFVGGGTFGNVYAAVNLDTGQLMAVKEIRLQDPKLIPTIAGQIRDEMRVLETVDHPNVVSYYGIEVHRDRVYMFMEFCSGGSLANLLEHGRIEDEQVIMVYALQLLEGLAYLHELKIAHRDIKPENILLDHNGIIKYVDFGAAKLIARQGRTLVQDVASTKPNKSMTGTPMYMSPEVIKGENAGHFGAVDIWSLGCVILEMATGRRPWANLDNEWAIMYNIAQGNPPQLPSQDQLSPEGIDFLRRCFMRDSTKRATAMELLQHEWIMTIRNRVVEPATPSSDAGSSTTSQGALNPGNSSRGGFPGDGMY
B3: eIF3 subunit (NCU01021) (protein, UniProt Q9P748 1-369)
chain: MAVDQESFVHLSRPLAPNVLGFGVSNAPLTVNIQPQAVFSIIDHAVRRDDRDTQSTRVIGALVGVRSEDGSEVEVRSTFAIPHTENEDQVEVDVEYQKNMLALTLKANPRETLLGWYTTSHELNSFSALIQNFFASPETGTFPHPAVHLTIGTEAGATIDTKTYISAPVAVSPERAAESCLFIEVPHKLLFTDAERGALGSVAAAADAESRSAPVVSDIENLAQALETVSDLLERVSGFVGEVLDEERDGNHALGQYLMNALSLAPKVSNLAIENDFNNHIQDVLMVSYLANTIRTQIELSQRLATAKLDEGKEGGEKKDGEGAEGDKKTDGQRGQRGQGGKRGGRSGGAGGRGGREQREPREPREAAE
B4: PAB (NCU04799) (protein, UniProt Q7S6N6 1-764)
chain: MAATSTAAVDQLAADLGNTSLDNKAAAPAPIDTSAVPEAQAEGAEAAPTPTAAPHPQASASLYVGELDPSVTEAMLFELFSQIGSVASIRVCRDAVTRRSLGYAYVNYNTTADGEKALEELNYTLIKGRPCRIMWSQRDPALRKTGAGNIFIKNLDAAIDNKALHDTFAAFGNILSCKVAQDEHGNSKGYGFVHYETDEAASQAIKHVNGMLLNEKKVYVGHHIPKKDRQSKFEEMKANFTNVYVKNINNEVTDEEFRELFAKFGEVTSSSLARDQEGKSRGFGFVNFTTHEAAAQAVDELNGKDFRGQDLYVGRAQKKHEREEELRKSYEAARLEKANKYQGVNLYIKNLGDDVDDDKLRAMFSEYGPITSAKVMRDSLIEGSEEKDEKDKENKKEGETKEEEQNEGSEKKTEKKGDRKLGKSKGFGFVCFSNPDDATKAVTEMNQRMVDGKPLYVALAQRKDVRKSQLEASIQARNQLRMQQAAAQAGMPQQYMQAPVYYAGQQPGFMPAPGGRGVPFPQGGIVPGVQGGRPGQYPYQQGGRGGVPPQQMPPMGYPINQFGPGAFPPNTPQYMAAMGQVGALGGGRGGPAGRGPQGIPAGIPQGLQGGPAVPGYPPAGRPQNGGGRGTPRGNANFMAAGRGASPIPGAPADLSAGSFLQAQLATTQDPQAQKQIIGENLFPKIQAIQPALAGKITGMLLEMDNAELINLFEDDNALNVKVQEALAVYDEYLKTQGQQPTQQPAEANGEQPKAEEQKPEEQKA
B5: eIF3 subunit (NCU00040) (protein, UniProt Q7RWT1 1-1059)
chain: MPPPPHQKPENVLKRAHELIGVNQAPAALTLLHEHITSKRSRNVPIASLEPVMLLLVELSVEQKKGKLAKDALYQYKNIAQNTNVATIELVLKKFIELAAEKVTAAQAKADEVQSSIEATTSNIDDLEASETPESILLATVSGEQSRDRTDRAIVTPWLKFLWEAYRTVLDILRNNARLEVLYQSTAMQAFDFCLKYTRKTEFRRLCELLRNHVQTAAKYSAQMHAINLNDPDTLQRHLETRFQQLNVAVELELWQEAFRSVEDIHTLLSLSKRPAKNVMMANYYEKLTRIFLVGENYLFHAAAWARYYNLLRQSAALIASGHSKKADNPACSDADLQRAATFVILSALSIPVISTSRSRGAMVDFDEARKNKNSRLTHLLGMAQAPTRAGLFRDALSKSLLRRAQPQIRDLYNILEVDFHPLSICQKISPILAEIGADAEMQKYILPLQQVILTRLFQQLSQVYETVDLEFVESLAQFPEPFQVTRGTIEKFIMNGNKKGDLAIRMDHATGVLSFDADVFSSAKAVHAGSSAGSAESETGSVQRLQSTPSQIVRSQLTRLAEALYTTCRYIDPSFNEARIKARDEALARAKAGAEKEHQEVLARKEIIQTRKDKASEAQAQKEKENARKKLLQEQALQQAEAARLAEEQKLREAKRLANEREQIKRKEVEALLKDMKLEELQGEDIETLDSNKIRMIKLQQLEREKNSVAEKLRITGKRLDHLERAFRKEEAKKLPEDYAKQRERDLAAYERTKAQTLKEAELKHKADVELKHRLTRLMPFYESFRSDLHERRRDEFEKRRRDAEREMEKQINARRKEAREKRIREKREREERERQLREAEERAAREKEEERKRLEARREELQRLKEEKEKEREKLREIAARQQQREEEAMARRKAEKEKLAATPSAYRPPAAAERTEAAAPPRIALAGNRPSWREREAAKAASGETAAPAPAAAEPVAERPRAAAPPAERTEAAAPPRLALAGNRPSWREREAAKAASGGGNAAAVPERSAPPLRAAAPQRAGSGRPENDRDVPPAEPLKASGAPGKYVPKWRREGA
B6: eIF3 subunit (NCU07929) (protein, UniProt Q7S9Y9 1-359)
chain: MAEVQKDAPIKSVQVEALVVMKIVKHCSTSFPTVATGSIVGMDNNGAIEVTNSFQFPSVDVSSSDSHSDASSLAAAAPRAKANIVYQNEMIRHLKEVNVDANNVGWYTSATMGNFINMSFIENQYHYQKENEKTVALVHDVSRSSQGALSLRAFKLSPEFMTAYKEAKFTTESLRNSKLTYKDIFVELPVNVHNSHLLTSFLHQIPAPPKSAEIPMPASLDDIRRDPVQIPAHPGFESLDLSIDPFLEKTCDLLLDSIESHYTDLNNHQYYQRQLTREQFKITQWQAKRKAENAARLAAKQSPLPEDEWQRLFKLPQEPSRLEGMLNARQVDQYARQVDAFTANITAKMFAVRGNLLPE
B7: eIF3G (NCU08046) (protein, UniProt Q6MFP4 1-297)
chain: MAAVQQKHDWADDDELEETSTELPPPQKITNKDGSTTIIEYRLNDNGQKVKTTRRIRYITHREVVNPRVAERKSWTKFGLSVKDGAGPAPDTTSVGENIIFKPSFNWRQEAKDESKDPNAQAMKDKLKDKKVKCRICNGEHFTARCPYKDTMAPIGEAGAAADVAASAADEAAAASQGAAGAGKKGSYVPPALRGAGGAAAAGERMGGKYGERDDLATLRVTNVSEMAEEQELRDMFERFGRVTRVFLAKDRDTGLAKGFAFISFADRSDAVKACAKMDGFGFRHLILRVEFAKKAA

target: T1, GUL-1-GFP (Neurospora crassa) (UniProt Q1K842); test: affinity purification with mass spectrometry; GUL-1-GFP captured from cleared crude N. crassa extract on GFP-Trap magnetic agarose beads overnight at 4°C; washed with 25 mM Tris HCl pH 7.5, 150 mM NaCl, 1.5 mM MgCl2, 1% NP-40, 1 mM EDTA; LC-MS-MS, label-free quantification against a strain expressing GFP alone; three biological replicates; cultures under standard growth conditions, without NH4NO3 for the last 1 h, or with 10^-5 M Nikkomycin Z for the last 1 h
T1 sequence: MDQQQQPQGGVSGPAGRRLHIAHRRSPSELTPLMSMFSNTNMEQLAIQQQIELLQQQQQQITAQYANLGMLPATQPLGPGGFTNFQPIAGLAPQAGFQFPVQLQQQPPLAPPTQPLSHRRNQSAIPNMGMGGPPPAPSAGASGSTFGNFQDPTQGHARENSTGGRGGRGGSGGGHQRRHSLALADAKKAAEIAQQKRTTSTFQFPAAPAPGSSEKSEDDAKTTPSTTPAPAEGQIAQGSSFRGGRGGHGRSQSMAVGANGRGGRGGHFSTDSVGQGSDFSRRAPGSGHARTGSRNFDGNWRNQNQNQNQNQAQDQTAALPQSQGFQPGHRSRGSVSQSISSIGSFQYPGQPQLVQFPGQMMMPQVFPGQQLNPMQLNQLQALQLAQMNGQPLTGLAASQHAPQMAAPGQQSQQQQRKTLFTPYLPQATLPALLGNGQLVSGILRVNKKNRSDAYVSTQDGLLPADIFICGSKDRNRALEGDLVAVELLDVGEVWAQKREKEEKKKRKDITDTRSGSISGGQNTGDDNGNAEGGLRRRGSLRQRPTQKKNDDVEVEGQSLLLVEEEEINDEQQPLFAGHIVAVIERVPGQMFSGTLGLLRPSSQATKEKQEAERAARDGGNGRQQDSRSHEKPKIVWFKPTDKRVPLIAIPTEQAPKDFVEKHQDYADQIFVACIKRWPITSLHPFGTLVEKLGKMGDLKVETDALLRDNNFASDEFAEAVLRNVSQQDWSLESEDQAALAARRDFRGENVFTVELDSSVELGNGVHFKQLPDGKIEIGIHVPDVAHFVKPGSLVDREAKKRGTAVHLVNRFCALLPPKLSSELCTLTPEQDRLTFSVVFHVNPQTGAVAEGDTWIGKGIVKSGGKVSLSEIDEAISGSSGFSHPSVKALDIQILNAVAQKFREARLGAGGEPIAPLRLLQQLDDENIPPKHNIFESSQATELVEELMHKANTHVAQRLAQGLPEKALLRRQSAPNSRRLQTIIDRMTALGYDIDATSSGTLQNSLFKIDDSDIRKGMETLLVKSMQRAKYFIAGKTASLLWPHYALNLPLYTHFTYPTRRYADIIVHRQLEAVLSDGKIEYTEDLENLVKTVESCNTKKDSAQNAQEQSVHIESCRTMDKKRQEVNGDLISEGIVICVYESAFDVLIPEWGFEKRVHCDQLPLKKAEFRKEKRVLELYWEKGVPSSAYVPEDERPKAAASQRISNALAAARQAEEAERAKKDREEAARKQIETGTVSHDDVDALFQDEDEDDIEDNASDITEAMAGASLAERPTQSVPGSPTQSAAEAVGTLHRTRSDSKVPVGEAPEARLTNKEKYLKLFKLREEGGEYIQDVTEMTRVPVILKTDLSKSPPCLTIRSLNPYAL

binding, binds:
B1
B2
B3
B4
B5
B6
B7
